Screen size: about 320,000 compounds; about 2,100 (0.66%) were called active. Inconclusive results, whose numbers are uncertain, are shown with a selection of clear calls. The call rests on the fitted dose curve; in most records, active means well fitted inhibition curve with a large enough effect in the signal ratio, with a control signal flat (not every such curve was filed as active); inconclusive means small, poorly fitted or top-dose-only effect, or effect the other way, or a change in a side signal; inactive means flat fitted curve, though single readings scatter; the % refers to the signal ratio. Potencies of inconclusive entries are doubtful fits and often do not repeat.
Experiment: qHTS Assay for Lipid Storage Modulators in Drosophila S3 Cells
Settings: BODIPY lipid droplet fluorescence, 18-24 h, cells fed with added oleic acid; lipid storage change, negative = inhibition: at 46.1 µM (top of the series) unless noted
Procedure, shortened: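 Laser-scanning cytometry quantifies lipid droplet accumulation (500–530 nm total intensity; droplet/cell object ratio) in oleic acid-fed (400 uM added) Drosophila S3 cells treated with a concentration series. 20 uM Triacsin C defined 100% inhibition.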
On the % scale 0 is the no-effect control and ±100 the full control effect; potency means the concentration at half of the fitted maximal effect.

Compound	Potency	lipid storage change, negative = inhibition
CN(C(=O)CSc1nnc(C2CC2)n1-c1ccccc1)C1CCS(=O)(=O)C1 (stereo not given)	inconclusive: 10.3 µM [activator, partial curve, poor fit]	
COc1cccc(OC)c1OCCCOc1cccc2cccnc12		inconclusive: 23.3%
C[C@H]1CN=C(N(C)C)N1CC1CCCCC1	inconclusive: 0.0058 µM [activator, full curve, poor fit]	
Fc1ccc(/C=N/Nc2nnnn2-c2ccccc2)cc1		inconclusive: -12.4%
CCCCN(C)C(=O)C1CCN(c2ccc(S(=O)(=O)N3CCOCC3)cc2[N+](=O)[O-])CC1		inconclusive: 3.67%
Clc1ccccc1-c1nc(-c2ccncc2)no1		inconclusive: -29.4%
O=C(CCS(=O)(=O)c1ccc(F)cc1)Nc1nnc(-c2ccc(F)cc2)o1		inconclusive
C/C(=C\C(=O)OCC(=O)NCc1ccccc1)C(=O)OCC(=O)NCc1ccccc1	inconclusive: 1.03 µM [falling, full curve, poor fit]	
CCN(CC)c1ccc(NC(=O)Cn2cc3c(n2)CCC(C)C3)c(C)c1 (stereo not given)		inconclusive: 38.8%
Cc1ccnc(NC(=O)CCC(=O)N(CC(=O)NC2CCCCC2)Cc2ccc3c(c2)OCO3)c1		inconclusive: 185%
Cc1noc(C)c1COC(=O)Cn1c(C)nc2ccccc21		inconclusive: 58.4%
Cc1ccc(N2CS(=O)(=O)/C(=C/N(C)C)C2=O)cc1		inconclusive: -25.9%
N#Cc1ccc(C(=O)OCC(=O)N2CCCCCC2)cc1		inconclusive: 3.42%
O=C(O)C1C2C=CC(C2)C1C(=O)NCc1ccc(Cl)c(Cl)c1 (stereo not given)		inconclusive: 60.5%
CC1CC1C(=O)OCC(=O)NCc1ccccc1Cl (stereo not given)	active: 32.6 µM	
CC1C(c2ccccc2)C(C#N)(C#N)C2(C#N)C(=O)NC1(N)C2C (stereo not given)	inconclusive: 2.06 µM [falling, partial curve, poor fit]	
O=C(CCN1C(=O)C2C3C=CC(C3)C2C1=O)N1CCN(c2ccccc2F)CC1 (stereo not given)	inconclusive: 29.1 µM [activator, single point]	
NC(=O)CCNC(=O)c1ccc(Cl)cc1	inconclusive: 0.0231 µM [falling, full curve, poor fit]	
Cc1ccc(S(=O)(=O)N(C)C)cc1NC(=O)c1cc(-c2ccco2)nc2ccccc12	inconclusive: 29.1 µM [activator, single point]	
CCCCOC(=O)Nc1ccccc1C(=O)OC		inconclusive: -1.74%
O=c1c2ccccc2nc(/C=C/c2ccc([N+](=O)[O-])o2)n1CCCO	inconclusive: 3.26 µM [falling, full curve]	
COc1ccccc1NC(=O)CSc1nc2ccccc2c(=O)n1CC1CCCO1 (stereo not given)		inconclusive: -14%
COc1ccc(C)cc1NC(=O)c1ccc(OC(F)F)cc1	inconclusive: 6.51 µM [activator, partial curve]	
NS(=O)(=O)c1ccc(NC(=O)c2ccc(CSc3ccccc3)o2)cc1		inconclusive: 7.03%
Cc1ccnc(SCC(=O)Nc2sc3c(c2C#N)CCCC3)n1		inconclusive: -58%

Compound	Potency	lipid storage change, negative = inhibition
Cc1cc(C)cc(NC(=O)C2CCN(S(C)(=O)=O)CC2)c1		inconclusive: 48.5%
COc1ccc(C(=O)Nc2ccc(C(=O)Nc3cccc(C)c3)cc2)cc1	inconclusive: 0.731 µM [activator, partial curve]	
Cc1ccn(CC(=O)NC2CC(C)(C)Cc3c2cnn3-c2ccc(F)cc2)n1 (stereo not given)	inconclusive: 29.1 µM [activator, single point]	
CCC(=O)OCC(=O)N=c1sccn1Cc1ccc(C)cc1	inconclusive: 5.8 µM [activator, full curve]	
O=C(Cc1ccc2c(c1)CCCC2)Nc1ccccc1Cl		inconclusive: 52.6%
Cc1cn2c(nc1=O)OC1CC2OC1CO (stereo not given)		inconclusive: -20.1%
CC(=O)N1CCN(S(=O)(=O)c2cccc(C(=O)N(Cc3ccccc3)c3ccc(C)cc3)c2)CC1		inconclusive: 40.2%
CCOC(=O)C1CCCN(C(c2ccccn2)c2c(C)[nH]c3ccccc23)C1 (stereo not given)		inconclusive: 9.84%
COc1cc(C(C[N+](=O)[O-])c2c(-c3ccccc3)cc3ccccn23)cc(OC)c1OC (stereo not given)	inconclusive: 4.11 µM [rising, single point]	
COc1ccccc1NC(=O)C(C)NS(=O)(=O)c1ccccc1 (stereo not given)		inconclusive: -7.12%
COc1ccc(C(=O)c2ccc(Cl)c([N+](=O)[O-])c2)cc1	inconclusive: 1.16 µM [falling, full curve]	
O=C(NN1c2ccccc2CCc2ccccc21)c1ccccc1Br		inconclusive: -48.2%
Cc1ccc(C2CC(c3cccs3)=NN2C(=O)CSc2nc(=O)n3cc(C)ccc3n2)cc1 (stereo not given)		inconclusive: -72.2%
CC(C)CNC(=O)c1noc2c1CCCC2		inconclusive: -0.308%
Cc1ccc(CCNC(=O)c2sc3nc4n(c(=O)c3c2C)CCC4)cc1		inconclusive: -53.7%
COc1ccc(Cl)cc1C(=O)OCC(=O)Nc1cccnc1Cl		inconclusive: 16.7%
O=C(OCC(=O)N1CCc2ccccc21)c1nc(Cl)ccc1Cl		inconclusive: 8.51%
O=C(CSc1nnc2ccccn12)Nc1ccc(S(=O)(=O)N2CCOCC2)cc1		inconclusive: 24.3%
CCOCCOCN(C#N)c1nc(OC)nc(N(C)C)n1	inconclusive: 16.4 µM [activator, partial curve]	
NC(=O)C1CC(O)CN1c1nc(CN2CCOCC2)nc2scc(-c3ccccc3)c12 (stereo not given)		inconclusive: -17.7%
O=C(CCNC(=O)c1ccccc1Cl)Nc1cccc(S(=O)(=O)N2CCCC2)c1		inconclusive: -38.1%
CCN1C(=O)[C@H]2[C@@H](c3ccc(OC)cc3)N3C(=O)CN(CCOC)C(=O)[C@@]3(C)[C@H]2C1=O	inconclusive: 29.1 µM [activator, single point]	
CC(C(=O)NC1=NCCS1)(C(F)(F)F)C(F)(F)F		inconclusive: -65.6%
COc1ccc(N(CC(=O)NCCOc2ccccc2)S(=O)(=O)c2ccc(C)cc2)cc1	inconclusive: 0.0046 µM [falling, full curve, poor fit]	
N#Cc1cc(-c2ccccc2)[nH]c1-c1nccc2ccccc12		inconclusive: -3.25%

Compound	Potency	lipid storage change, negative = inhibition
CCCC(c1nnnn1Cc1ccc(OC)cc1)N1CCN(c2ccccc2)CC1 (stereo not given)	inconclusive: 3.66 µM [activator, single point]	
CC(C)c1ccc(S(=O)(=O)N2CCN(CC(=O)Nc3ccc4c(c3)OCO4)CC2)cc1	inconclusive: 0.164 µM [activator, full curve, poor fit]	
O=C(NCCC(=O)N1CCN(c2ccc(F)cc2)CC1)c1ccco1		inconclusive
Cc1ccc(S(=O)(=O)N(C)c2ccc(C(=O)N(C)Cc3nc4ccccc4c(=O)[nH]3)cc2)cc1		inconclusive
CCN(CC(=O)NC1CCS(=O)(=O)C1)C(=O)/C=C/c1cccs1 (stereo not given)	inconclusive: 0.731 µM [rising, single point]	
O=C(Nc1nncs1)c1cccc(S(=O)(=O)N2CCCC2)c1		inconclusive: 11.6%
Cc1ccccc1N1CCN(C(=O)c2cc(C3CC3)nn2-c2ccccc2)CC1		inconclusive: 23.7%
c1ccc2c(c1)[nH]c1c(N3CCCC3)ncnc12		inconclusive: 123%
COc1ccc(C(C(=O)NC2CCCCC2)N(C(=O)CCl)c2ccc(Cl)cc2)cc1 (stereo not given)	inconclusive: 16.4 µM [falling, partial curve]	
Cc1cc(C(=O)NCCCC(=O)O)c(C)o1		inconclusive: -16.6%
Cc1ccc(N/C=C(\[N+](=O)[O-])S(=O)(=O)c2ccccc2)cc1	inconclusive: 29.1 µM [cytotoxic, single point]	
Cc1ccc(NS(=O)(=O)c2ccccc2)c2c1CC(C)(C)O2		inconclusive: 150%
O=C(Nc1ccc(SC(F)F)cc1)C1=CC=CN2CCS(=O)(=O)N=C12	inconclusive: 1.46 µM [activator, partial curve]	
Cc1ccccc1CNC(=O)CCCn1ncn2c(cc3occc32)c1=O		inconclusive: -82.5%
COc1ccccc1N(CC(=O)NC1CCCCC1)S(C)(=O)=O	inconclusive: 11.6 µM [rising, partial curve]	
O=C(Nc1nc2cc3c(cc2s1)OCO3)c1ccco1		inconclusive: 29.1%
CCn1nc(C)cc1C(=O)N1CCCC(CCC(=O)NCc2ccccc2F)C1 (stereo not given)	inconclusive: 18.4 µM [cytotoxic, partial curve]	
Cc1nc(N2CCN(C(=O)c3ccco3)CC2)c2c3c(sc2n1)CCC3		inconclusive: 65.2%
COc1ccc(-c2nc(NC(=O)C3CC(=O)N(c4ccc5c(c4)OCCO5)C3)sc2C)cc1 (stereo not given)	inconclusive: 6.51 µM [falling, single point]	
COc1ccccc1NS(=O)(=O)c1ccc2oc(SCc3ccc(C#N)cc3)nc2c1		inconclusive: 22.8%
Cc1ccc(-c2csc3ncnc(N4CCN(C)CC4)c23)cc1C		inconclusive: 40.1%
CC(C)N(C(=O)c1ccc(-c2ccccc2F)cc1)C(C)C		inconclusive: 3.02%
Cc1nn2c(NCCCN3CCOCC3)c3c(nc2c1-c1ccccc1)CCC3		inconclusive: 12%
NC(=S)N/N=C/c1ccc2c(c1)OCCO2		inconclusive: 7.15%
Cc1ccc(N2CN(S(=O)(=O)c3cccc([N+](=O)[O-])c3)c3nc4ccccc4nc32)cc1	inconclusive: 18.4 µM [activator, single point]	

Whole records as entered above:
O=C(Nc1ccc(SC(F)F)cc1)C1=CC=CN2CCS(=O)(=O)N=C12 in the list: Potency: inconclusive: 1.46 µM [activator, partial curve]
O=C(Nc1nc2cc3c(cc2s1)OCO3)c1ccco1 in the list: lipid storage change, negative = inhibition: inconclusive: 29.1%
CC(C)c1ccc(S(=O)(=O)N2CCN(CC(=O)Nc3ccc4c(c3)OCO4)CC2)cc1 in the list: Potency: inconclusive: 0.164 µM [activator, full curve, poor fit]

— PubChem BioAssay AID2685 (National Center for Advancing Translational Sciences (NCATS), 2010)
